Experimental findings from paper PMC11784139 are described below.

Tags and fusion partners may be left off the protein sequences shown. For some assays here: The exact form of at least one protein or probe is not confirmed.

Data set [1] has as its system T1, 6xHis-APR1 (Acinetobacter venetianus RAG-1).
T1 sequence (looked up): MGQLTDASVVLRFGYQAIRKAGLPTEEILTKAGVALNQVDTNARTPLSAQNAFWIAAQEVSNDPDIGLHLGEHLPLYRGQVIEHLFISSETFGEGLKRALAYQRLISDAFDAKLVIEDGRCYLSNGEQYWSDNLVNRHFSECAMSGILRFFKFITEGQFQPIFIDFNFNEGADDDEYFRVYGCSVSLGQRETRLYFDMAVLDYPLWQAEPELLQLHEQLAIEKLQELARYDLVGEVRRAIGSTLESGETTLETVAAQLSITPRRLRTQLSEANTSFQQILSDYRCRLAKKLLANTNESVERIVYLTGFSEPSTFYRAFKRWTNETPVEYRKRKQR
In words: MST. To be noted: NT-647-NHS labeled APR1 10 uM, DNA 0.64-41400 nM, tag of MST protein not explicitly stated; MST: 50 mM PBS pH 7.2-7.4, temperature not stated; recombinant protein; residues 1-335; protein details: N-terminal 6xHis (pET-28a); probe letters rebuilt from the primers and the genome.

For data set [2] the test system is unchanged. In words: EMSA. To be noted: APR1 0-5.10 uM, DNA 110 nM; EMSA: 5 mM Tris-HCl pH 7.5, 0.1 mM EDTA, 5 mM MgCl2, 10 mM KCl, 0.2 mM DTT, 30 C, 30 min, native PAGE in 0.5x TBE; recombinant protein; residues 1-335; protein details: N-terminal 6xHis (pET-28a); probe letters rebuilt from the primers and the genome.

On to “AATCAATTGTTTATACTCTATTAACAGCTTGTTTTATAACATTATGATTGCTAAAGGTTAACTCGATGCTTTGTATGTGAGTGTATTGAGCTTTCTATTTACATCAAAATTTTATAACAAATTATTTATACATTCATTGTGATTAACATATTTTTCATACTTTACACATATTACTTAAATTAAGTTTTTTGGTTATACGGAAAAAATGAATTTTTCTTAAACTCTGATCCTTTAATAAATTGCAAATCCAAGCAAAAATCTCAGGATTTTTTACACTCTCTTTTTCTAAAAATGTCCCGAAGTGACATGAAAAAACCGATGAATGACTAAACTTGACATTGTGTATTGTCAAATTTGTGCTTTAATAAAGTCATGGTTTATACAGGGTAT (double strand) [almA promoter]”, for which the Kd (commonly the constant that tells how readily two partners part at equilibrium) in data set [1] is 97.2 nM. In data set [2], the binding result is listed as “binds”.
